Measured values published in PubChem BioAssay AID1347426 (Functional Genomics Laboratory (NCATS/FGL), 2020).
In all, about 31,000 sequences went through this assay and about 1,400 (4.5%) were called active.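 The calls were made as follows: active = median seed-adjusted z-score above 1 or below -1; inactive = the rest.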 Some of the results follow.

Test: Novel Modifiers of Survival Motor Neuron (SMN) Protein: Gene Identification via Genome-wide siRNA Screen;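 also: luminescence tracks full-length SMN protein made from the SMN2 reporter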
Details: HEK293T SMN2-luciferase reporter, siRNA knockdown, 72 h; actives lie on both sides
How it was run: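 Each of three siRNAs per gene is reverse-transfected (1 pmol) into reporter HEK293T cells whose luciferase output tracks SMN protein level. After 72 h culture, ONE-Glo luminescence is control-normalized, log10-transformed and MAD-standardized; Common Seed Analysis deprioritizes seed-driven hits.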

| Sequence | median seed-adjusted z-score |
| --- | --- |
| CGUUCUCGCCCGCAAUUUATT against TCEAL1 | inactive: -0.263 |
| GGUUUGUGGUGGAAGAUUATT against PLCD3 | inactive: 0.228 |
| GAGUAUUGAUGAUAUGUUATT against RAD9B | inactive: 0.0879 |
| CAACGAUCCCUGUACCAGUTT against GABBR2 | inactive: -0.038 |
| GUAGCUUCCCGGUUAAGUATT against NUMB | inactive: -0.599 |
| GAAUUAUGCUACUCGAGAATT against EIF3A | inactive: -0.689 |
| GGUCUGUACCAGUCUAUAATT against RFESD | inactive: -0.503 |
| CCAUCACCUCGCUAAAGAATT against RAD54L | inactive: -0.393 |
| GGCUCUUAAUUAUUAUCUUTT against GHR | inactive: 0.273 |
| GGGAUUCCAUUGACCAGAATT against PLCG2 | inactive: 0 |
| CCACAAUCCUUGACAACGATT against SLC1A1 | inactive: 0.0967 |
| GAGCAUUAUGUUACACCAATT against TTC6 | inactive: 0.234 |
| GAAAGAUACUGCGUGAAGATT against SLC25A13 | inactive: 0.00924 |
| CUGUCACUGUUGCGCAUGATT against CYP2A6 | inactive: 0.117 |
| GGGACAACAUGGACUAUGUTT against TRIM41 | inactive: -0.164 |
| GAGCCGAUUUUUAAGUCAATT against ATR | inactive: -0.217 |
| GCAAGACAAGUGUCGGGAATT against HSPA6 | inactive: 0.364 |
| GGAUUAUGAAGAAUGGAAATT against ORC6L | inactive: 0 |
| GGAUCCUGUACGACACGUATT against GAMT | inactive: -0.161 |
| UGCAUUGACUGGAACCGUATT against PADI1 | inactive: 0 |
| GUAACAUUGUUAUCCGUUATT against IFIH1 | inactive: 0.419 |
| GGAGCAAUACAGUGACAUUTT against PSMC3 | inactive: -0.701 |

A few values from above.
Entry for GGGAUUCCAUUGACCAGAATT against PLCG2 under median seed-adjusted z-score: inactive: 0
Entry for CCACAAUCCUUGACAACGATT against SLC1A1 under median seed-adjusted z-score: inactive: 0.0967
Entry for CAACGAUCCCUGUACCAGUTT against GABBR2 under median seed-adjusted z-score: inactive: -0.038
Entry for GCAAGACAAGUGUCGGGAATT against HSPA6 under median seed-adjusted z-score: inactive: 0.364
Entry for GAGCAUUAUGUUACACCAATT against TTC6 under median seed-adjusted z-score: inactive: 0.234
Entry for GGGACAACAUGGACUAUGUTT against TRIM41 under median seed-adjusted z-score: inactive: -0.164
Entry for GUAACAUUGUUAUCCGUUATT against IFIH1 under median seed-adjusted z-score: inactive: 0.419

Continued:

| Sequence | median seed-adjusted z-score |
| --- | --- |
| CAACUUAACUUACAUCAGATT against ZNF461 | inactive: 0.0877 |
| GGAGCAUACAGAACGGACATT against SIPA1L3 | inactive: 0 |
| GGCCUUUACUGGAUAUGAUTT against LINGO2 | inactive: 0.123 |
| GGGAAUGACUGGAAGACGATT against TTF1 | active: 1.76 |
| GUGUAUGCCCGAGAAAUGCTT against VSX1 | inactive: -0.91 |
| AGACCAUGACCGAUACCUATT against CCR7 | inactive: 0.244 |
| CCACAGGUUUUGCAAGAAUTT against RAB36 | inactive: -0.348 |
| GGCUUUCUCCUAUAUCUGUTT against NUMBL | inactive: -0.139 |
| GAUGUAACCUCAUUCAGCATT against ZNF211 | inactive: -0.173 |
| GAACAUGGGUGAUCGGUUUTT against LCMT1 | inactive: 0.821 |
| CGUCCGAUUUGGGUCUGAUTT against PTHLH | inactive: 0.00556 |
| CCAGGAGAAAUAUAAGUCATT against ZNF627 | inactive: 0.204 |
| GGAGUUUUAUGGACGAGGATT against NENF | inactive: -0.778 |
| CAACUUCACGGACUUAACATT against KYNU | inactive: 0.00735 |
| GCCUUGCUCCGAACCUUCATT against OAZ1 | inactive: 0.144 |
| GGAUCGUAAUGCAUUUCGATT against EFCAB1 | inactive: -0.719 |
| GCAGGGUCCUAUUUAUAGATT against TMLHE | inactive: -0.241 |
| GCAAAUCGUUAAGUAUGUUTT against ITGA4 | inactive: 0 |
| CCAAAACAAUUGACCCUAATT against MSI1 | inactive: -0.806 |
| GACAGAAGUUUGUACGGUUTT against LGI3 | inactive: -0.0189 |
| GCCUACUGUUCUGACAUUUTT against ABCG1 | inactive: -0.609 |
| CGAUUGAUCGUGGAGAUUATT against PCMTD1 | inactive: 0.0312 |

| Sequence | median seed-adjusted z-score |
| --- | --- |
| GCACUGUGCUCGGAAGUUATT against GLS2 | inactive: -0.793 |
| GGAACCCUGUCAGCAGAAATT against SLAMF7 | inactive: -0.478 |
| CGACUACAGCUACUACCAATT against RBM10 | inactive: -0.0114 |
| GGACCUCAUUAAUGAGUUATT against JUB | inactive: -0.0898 |
| GGAACGAUGAGAACGGCAATT against AACS | inactive: 0.232 |
| GCACGCUGAUCGCCAUCUUTT against ONECUT3 | inactive: -0.653 |
| GGAUUUGGAGGACUCCGUATT against PRKAB2 | inactive: 0.17 |
| GGAUCUGCAUAGUGACCAATT against PSMB1 | inactive: -0.35 |
| CCAGCACGCCCACAAAGAATT against EDAR | inactive: 0.137 |
| GCCUUGAACUGGGACAUAATT against DFFA | inactive: -0.494 |
| GGUCUUUACUAGGUGUAUUTT against APPL1 | inactive: 0 |
| AACACUACGUGGAACUUCUTT against TRPV4 | inactive: -0.73 |
| GGCUAUUAACCGAAGCAAATT against TSPAN31 | active: -1.13 |
| AGAGGAUGCAGAUUACGAATT against CACNG2 | inactive: 0.00759 |
| GGCAUUGCCUAGAUGACAATT against RABIF | inactive: 0 |
| CUUGGGACCUGUUUAGAGATT against PDX1 | inactive: 0 |
| GUCUCAAUCUAAUAAGGAATT against TTLL1 | inactive: 0.322 |
| GAGAGGUCUUUUUCCGAGUTT against BAX | inactive: -0.478 |
| AAGUUGACAUUAUUGAACATT against EAF1 | inactive: -0.931 |
| GAUCCUAUGUUCAAUCUAATT against DICER1 | inactive: 0.101 |
| CAAUGUGGUGUAUAAUACATT against VNN2 | inactive: -0.583 |
| CUGUACUUGUGAGAUAGAATT against LRRC17 | inactive: 0.0234 |

| Sequence | median seed-adjusted z-score |
| --- | --- |
| CGAUCUACUUGUCAUUGCATT against POLE2 | inactive: -0.584 |
| CGAACUACACCUUCAGCUATT against ATF1 | inactive: -0.112 |
| GAAUAUAGUCAGAUGUACATT against TRNAU1AP | inactive: 0.52 |
| UCACCCUGAUGAUGCCUUATT against SLC7A3 | inactive: -0.537 |
| UCUGGUCCGUGUGAAGAAATT against DFNB31 | inactive: -0.233 |
| CCGUUACAUUUGAUUCAUUTT against PNPT1 | inactive: 0.0729 |
| GAUUCGGAGGUAACAGUGATT against MPPED2 | inactive: 0.418 |
| CGACUAUGCUUUGAGCUCUTT against SPAG4 | inactive: -0.219 |
| GAAGAUGUUUGAUAGACAUTT against CLTCL1 | inactive: 0.341 |
| GACUGACUCGGGACAAAUATT against INPP5D | inactive: 0.0116 |
| UCAACUGACUCAUACCUGUTT against KCNMB1 | inactive: -0.465 |
| GGAAAAUCAUUAGGCGGUATT against ANK2 | inactive: 0 |
| CCAUUCUUCAUUACCCAUATT against ZNF321 | inactive: -0.642 |
| GAAAGGCUUUGACCAAUCUTT against ZNF319 | inactive: 0.256 |
| CCUUUACCGUCUGUCCAGATT against CDC25C | inactive: 0.256 |
| GCUAAAGAUUGAUAGUGAATT against ZC3H11A | inactive: -0.137 |
| GCCUAGUUUUGACAACCAUTT against FLJ90650 | inactive: 0.427 |
| GGAGGAAGAAUAAAUCUGATT against SLC13A3 | inactive: 0.0434 |
| GCAGAUGGAUUUCGUAUUATT against RBM34 | inactive: 0 |
| GAACUUGUUUCGCAAAUUUTT against RAPGEFL1 | inactive: 0.21 |
| CCACAUGCAUUAUGCACUATT against GALC | inactive: 0 |
| GGAGGAUACUUUAGAACAATT against NDC80 | inactive: 0.0855 |

| Sequence | median seed-adjusted z-score |
| --- | --- |
| GAUACCUCCUGAAAGACCATT against SH3KBP1 | inactive: -0.34 |
| CAUCGUCCAUGACAAGUCATT against GTF2IRD1 | inactive: -0.282 |
| GGAAUAAAGUUAUCAAGGATT against S1PR5 | inactive: 0.301 |
| GAUCCGCUUUGAGAGCACATT against DHX34 | inactive: -0.269 |
| UGCGCUACCUCUUCCUGAATT against LRG1 | inactive: 0.668 |
| GUCUUACAGCUCACAAAGATT against ENTPD5 | inactive: -0.355 |
| GACAUUUCAGUGCCGAGUATT against ATF2 | inactive: 0.424 |
| CUGUCCUUCAAUUACCAAATT against TLR9 | inactive: -0.0834 |
| GGACAUUAGUUAUUAAACUTT against PCDHA5 | inactive: 0.671 |
| GGGAAUGGUCGGUCACUAUTT against COX6B2 | inactive: -0.544 |
| GGGUCACUGUUGCACUACCTT against NPFF | inactive: -0.631 |
| CAUCACCGCUGGGUCCAAATT against FABP1 | inactive: -0.302 |
| CUCUGAGGCUGUUAAAUCATT against THNSL2 | inactive: 0 |
| GCUGCAGAAGGAACCUUGCTT against SCT | inactive: -0.454 |
| CAUCCAUUAUGACCUGCUATT against ACO2 | active: -1.57 |
| GUGGUGCAGUUCUUACGAATT against BAZ2B | inactive: -0.679 |
| GAGUUCAAACAUCCAAUUUTT against GBP6 | inactive: -0.0703 |
| GUUUCAGAUUAUACCGAAATT against DPM1 | inactive: -0.214 |
| UCACCACCGUGUCUAAGAATT against MPO | inactive: -0.223 |
| GCCGAACUAUCUGAGAAUATT against PCDH1 | inactive: -0.514 |
